Data from patent publication US4816560A, “Partially retro-inverted tuftsin analogues, method for the preparation thereof and pharmaceutical compositions containing them” (priority 1986, dated 1989).
At least one peptide structure holds a part that was inferred or is arguable (an end, a ring closure or a residue). Where a SMILES comes first, the peptide text is derived from it.

System: peritoneal M.phi. from normal C3H/HeN mice
Test: macrophage (M.phi.) phagocytic stimulation assay (ingestion of killed yeast cells, Zymosan)
Format: cell-based
Source text: The compounds of formula I, including the pharmaceutically acceptable esters, amides and salts, are active as immunostimulating agents. […] This assay, carried out in comparison with tuftsin, has been performed according to a modification of the method described by Bar-Shavit et al. in J.Cell.Physiol., 100, p.55 (1979). More particularly, peritoneal M.phi. from normal C3H/HeN mice are harvested by washing of the peritoneal cavity and purified by adherence as described in J.Immunol., 132, p.1987 (1984). Monolayers of 1×10^6 adherent peritoneal cells (95-98% of the monocyte-M.phi. series as judged by morphology and latex phagocytosis) are cultured for 20 h at 37° C. in RPMI-1640 medium supplemented with 50 μg/ml gentamycin, 25 mM HEPES buffer, 2 mM L-glutamine and 10% heat-inactivated fetal bovine serum (FBS). At the end of the incubation, M.phi. are washed and then exposed for 15 minutes at 37° C. to 1.3 ml/plate of culture medium either alone (blank) or containing tuftsin or a compound of the invention at different concentrations. A 1.5×10^8 cells/ml suspension of killed yeast cells (Zymosan)(0.2 ml) is then added to the plates. […] The percentage of phagocyting M.phi. and the number of ingested Zymosan cells is measured with an optical microscope equipped with a 100x immersion objective. […]

## C[C@@H](O)[C@H](N)C(=O)N[C@@H](CCCCN)C(=O)N1CCC[C@H]1C(=O)N[C@@H](CCCNC(=N)N)C(=O)O [tuftsin] (H-TKPR-OH)
Fresh peptide, linearly dependent on peptide concentration
  number of ingested yeast cells (in words): significantly increased
Peptide stored for 14 days in solution at 4° C.
  phagocytosis stimulation (in words): devoid of activity
